We go through 29 targets from the supplement of paper PMC10849652.

Sequences of proteins named here, by UniProt entry; tags and fusion partners are left off. A change or cut given only in a name is not applied to a line headed by its entry.
UniProt Q96QU6: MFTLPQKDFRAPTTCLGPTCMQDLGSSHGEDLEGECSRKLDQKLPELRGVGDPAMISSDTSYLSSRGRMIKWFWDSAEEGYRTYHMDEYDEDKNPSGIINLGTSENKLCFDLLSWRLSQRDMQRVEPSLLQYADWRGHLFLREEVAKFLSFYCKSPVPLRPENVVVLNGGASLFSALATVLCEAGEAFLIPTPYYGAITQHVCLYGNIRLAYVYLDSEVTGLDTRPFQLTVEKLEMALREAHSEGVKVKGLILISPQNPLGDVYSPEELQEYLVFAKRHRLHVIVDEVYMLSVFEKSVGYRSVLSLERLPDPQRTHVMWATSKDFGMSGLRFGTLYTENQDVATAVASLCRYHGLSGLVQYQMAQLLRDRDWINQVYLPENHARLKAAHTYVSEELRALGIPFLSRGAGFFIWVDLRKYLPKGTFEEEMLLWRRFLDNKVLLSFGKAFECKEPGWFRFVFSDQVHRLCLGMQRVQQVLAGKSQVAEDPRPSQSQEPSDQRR
UniProt Q5VST6: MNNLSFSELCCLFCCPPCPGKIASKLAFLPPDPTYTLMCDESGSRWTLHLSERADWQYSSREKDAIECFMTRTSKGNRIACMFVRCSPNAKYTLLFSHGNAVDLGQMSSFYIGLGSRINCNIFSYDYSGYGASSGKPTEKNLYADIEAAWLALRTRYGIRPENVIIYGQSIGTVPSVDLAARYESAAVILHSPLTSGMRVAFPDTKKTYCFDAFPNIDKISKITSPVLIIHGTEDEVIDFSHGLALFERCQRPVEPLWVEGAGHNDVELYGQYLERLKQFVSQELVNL
UniProt Q96M93: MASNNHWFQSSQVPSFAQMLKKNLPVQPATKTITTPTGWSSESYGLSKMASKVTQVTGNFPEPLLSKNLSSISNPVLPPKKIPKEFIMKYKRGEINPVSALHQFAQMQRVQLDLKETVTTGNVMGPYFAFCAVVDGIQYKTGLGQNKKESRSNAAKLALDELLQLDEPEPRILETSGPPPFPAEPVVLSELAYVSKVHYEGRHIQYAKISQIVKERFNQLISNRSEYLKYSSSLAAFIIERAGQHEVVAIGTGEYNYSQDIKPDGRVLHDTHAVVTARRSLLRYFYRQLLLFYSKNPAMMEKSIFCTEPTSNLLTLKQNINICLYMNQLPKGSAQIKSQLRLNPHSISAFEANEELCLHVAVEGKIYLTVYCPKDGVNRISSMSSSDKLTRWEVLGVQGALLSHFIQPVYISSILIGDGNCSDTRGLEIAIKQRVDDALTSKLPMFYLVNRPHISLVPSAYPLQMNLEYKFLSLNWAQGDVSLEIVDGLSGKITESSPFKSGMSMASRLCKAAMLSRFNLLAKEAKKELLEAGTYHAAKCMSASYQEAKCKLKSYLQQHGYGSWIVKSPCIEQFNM
UniProt Q6JQN1: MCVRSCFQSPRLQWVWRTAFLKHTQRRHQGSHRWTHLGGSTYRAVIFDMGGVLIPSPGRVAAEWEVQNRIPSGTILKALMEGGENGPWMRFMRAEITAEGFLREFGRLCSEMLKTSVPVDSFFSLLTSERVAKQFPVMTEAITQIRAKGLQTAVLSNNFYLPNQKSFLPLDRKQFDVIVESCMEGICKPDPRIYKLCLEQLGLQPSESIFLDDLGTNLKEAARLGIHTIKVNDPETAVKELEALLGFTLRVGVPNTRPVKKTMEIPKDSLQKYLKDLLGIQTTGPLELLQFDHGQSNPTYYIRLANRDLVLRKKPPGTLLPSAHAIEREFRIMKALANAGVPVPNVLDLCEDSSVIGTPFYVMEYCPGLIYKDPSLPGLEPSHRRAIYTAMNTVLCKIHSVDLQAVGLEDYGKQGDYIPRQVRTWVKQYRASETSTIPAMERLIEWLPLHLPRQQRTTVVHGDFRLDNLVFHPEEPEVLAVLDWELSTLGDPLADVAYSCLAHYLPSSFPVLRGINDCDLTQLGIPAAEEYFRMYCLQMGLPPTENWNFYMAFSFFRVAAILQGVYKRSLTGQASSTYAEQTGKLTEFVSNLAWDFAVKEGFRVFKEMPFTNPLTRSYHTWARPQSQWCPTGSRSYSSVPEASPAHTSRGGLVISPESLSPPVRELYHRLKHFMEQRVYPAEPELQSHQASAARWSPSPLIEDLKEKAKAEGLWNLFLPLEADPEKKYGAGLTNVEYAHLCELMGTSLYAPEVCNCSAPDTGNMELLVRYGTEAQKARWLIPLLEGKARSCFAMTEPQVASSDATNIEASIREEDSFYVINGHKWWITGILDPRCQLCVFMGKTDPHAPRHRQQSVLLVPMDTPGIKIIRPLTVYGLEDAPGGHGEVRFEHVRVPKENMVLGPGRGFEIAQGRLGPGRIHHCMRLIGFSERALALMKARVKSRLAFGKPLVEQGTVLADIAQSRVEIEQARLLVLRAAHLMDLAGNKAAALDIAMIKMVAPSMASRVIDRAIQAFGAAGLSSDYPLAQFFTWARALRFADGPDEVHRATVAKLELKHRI
UniProt Q8NFV4: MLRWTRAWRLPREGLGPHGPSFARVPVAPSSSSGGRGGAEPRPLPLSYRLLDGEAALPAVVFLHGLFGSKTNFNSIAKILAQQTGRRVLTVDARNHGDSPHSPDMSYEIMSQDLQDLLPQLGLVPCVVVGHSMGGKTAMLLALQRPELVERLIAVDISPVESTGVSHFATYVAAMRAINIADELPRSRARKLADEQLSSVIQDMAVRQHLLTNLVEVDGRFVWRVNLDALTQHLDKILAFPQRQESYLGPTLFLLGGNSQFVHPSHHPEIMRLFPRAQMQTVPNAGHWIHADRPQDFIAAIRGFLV
UniProt P21439, whole entry, looked up: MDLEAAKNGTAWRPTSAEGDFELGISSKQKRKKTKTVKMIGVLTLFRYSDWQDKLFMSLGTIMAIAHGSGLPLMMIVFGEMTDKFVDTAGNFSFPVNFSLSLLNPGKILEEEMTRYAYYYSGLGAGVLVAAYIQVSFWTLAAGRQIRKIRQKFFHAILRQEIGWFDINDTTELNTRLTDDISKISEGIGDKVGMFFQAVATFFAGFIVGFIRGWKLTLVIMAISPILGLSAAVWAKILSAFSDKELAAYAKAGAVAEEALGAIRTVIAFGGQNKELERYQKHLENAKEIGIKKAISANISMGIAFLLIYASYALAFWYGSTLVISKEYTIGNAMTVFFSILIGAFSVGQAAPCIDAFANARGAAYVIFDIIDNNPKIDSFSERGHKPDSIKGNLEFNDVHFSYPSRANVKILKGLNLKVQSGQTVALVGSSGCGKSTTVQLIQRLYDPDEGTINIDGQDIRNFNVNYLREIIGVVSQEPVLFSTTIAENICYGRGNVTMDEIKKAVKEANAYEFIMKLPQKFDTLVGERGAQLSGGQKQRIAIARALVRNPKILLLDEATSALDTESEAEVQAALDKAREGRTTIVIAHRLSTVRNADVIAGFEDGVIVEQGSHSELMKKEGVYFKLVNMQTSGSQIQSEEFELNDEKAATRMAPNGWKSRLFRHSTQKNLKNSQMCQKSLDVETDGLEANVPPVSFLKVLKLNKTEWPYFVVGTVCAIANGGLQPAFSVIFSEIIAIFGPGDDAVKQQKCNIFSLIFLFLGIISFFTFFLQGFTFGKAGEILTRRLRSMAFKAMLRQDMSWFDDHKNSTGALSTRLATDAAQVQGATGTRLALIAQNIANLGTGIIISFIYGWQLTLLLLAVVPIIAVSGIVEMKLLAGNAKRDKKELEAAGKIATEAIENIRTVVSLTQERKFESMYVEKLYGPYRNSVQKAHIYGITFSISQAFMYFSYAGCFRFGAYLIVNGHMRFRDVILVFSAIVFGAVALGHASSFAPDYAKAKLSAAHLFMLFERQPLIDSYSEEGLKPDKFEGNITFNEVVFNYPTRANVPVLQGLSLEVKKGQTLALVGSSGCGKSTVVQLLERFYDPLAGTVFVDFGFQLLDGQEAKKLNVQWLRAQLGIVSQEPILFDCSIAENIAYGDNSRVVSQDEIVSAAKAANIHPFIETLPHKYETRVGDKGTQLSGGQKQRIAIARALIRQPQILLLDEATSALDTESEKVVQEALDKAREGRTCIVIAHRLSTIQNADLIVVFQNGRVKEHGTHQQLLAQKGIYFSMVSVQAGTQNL
UniProt P14621: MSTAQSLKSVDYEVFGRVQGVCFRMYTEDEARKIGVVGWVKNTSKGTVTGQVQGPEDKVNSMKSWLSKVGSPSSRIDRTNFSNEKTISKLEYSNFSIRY
UniProt P24666: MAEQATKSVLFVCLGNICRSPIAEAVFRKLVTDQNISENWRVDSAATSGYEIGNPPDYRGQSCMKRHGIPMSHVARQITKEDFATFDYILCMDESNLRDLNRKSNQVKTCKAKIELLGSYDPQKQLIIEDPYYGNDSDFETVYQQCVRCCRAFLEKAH
UniProt Q8N6N7: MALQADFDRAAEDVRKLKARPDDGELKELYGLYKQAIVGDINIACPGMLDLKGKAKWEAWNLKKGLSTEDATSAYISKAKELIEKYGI
UniProt Q8TDG2: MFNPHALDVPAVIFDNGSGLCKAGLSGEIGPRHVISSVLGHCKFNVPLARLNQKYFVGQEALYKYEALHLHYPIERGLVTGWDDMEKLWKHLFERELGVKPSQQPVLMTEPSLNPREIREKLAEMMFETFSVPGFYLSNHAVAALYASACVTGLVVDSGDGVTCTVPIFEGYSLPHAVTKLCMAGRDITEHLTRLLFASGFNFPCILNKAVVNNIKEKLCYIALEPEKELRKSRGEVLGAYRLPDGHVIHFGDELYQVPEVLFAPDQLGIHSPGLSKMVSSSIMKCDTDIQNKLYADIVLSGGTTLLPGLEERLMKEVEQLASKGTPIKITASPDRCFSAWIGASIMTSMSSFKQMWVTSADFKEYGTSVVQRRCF
UniProt Q9BTE6: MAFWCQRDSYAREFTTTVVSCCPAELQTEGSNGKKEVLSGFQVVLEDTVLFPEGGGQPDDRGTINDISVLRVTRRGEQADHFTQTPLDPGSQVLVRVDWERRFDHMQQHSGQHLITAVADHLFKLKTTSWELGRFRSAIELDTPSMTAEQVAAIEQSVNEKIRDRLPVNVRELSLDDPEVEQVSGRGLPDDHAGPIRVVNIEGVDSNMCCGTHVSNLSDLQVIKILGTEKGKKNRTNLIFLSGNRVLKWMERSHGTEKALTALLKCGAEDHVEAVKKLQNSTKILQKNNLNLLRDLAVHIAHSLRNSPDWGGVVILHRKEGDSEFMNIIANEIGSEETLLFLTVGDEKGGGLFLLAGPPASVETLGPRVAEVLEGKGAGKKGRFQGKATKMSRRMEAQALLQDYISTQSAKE
UniProt Q15067: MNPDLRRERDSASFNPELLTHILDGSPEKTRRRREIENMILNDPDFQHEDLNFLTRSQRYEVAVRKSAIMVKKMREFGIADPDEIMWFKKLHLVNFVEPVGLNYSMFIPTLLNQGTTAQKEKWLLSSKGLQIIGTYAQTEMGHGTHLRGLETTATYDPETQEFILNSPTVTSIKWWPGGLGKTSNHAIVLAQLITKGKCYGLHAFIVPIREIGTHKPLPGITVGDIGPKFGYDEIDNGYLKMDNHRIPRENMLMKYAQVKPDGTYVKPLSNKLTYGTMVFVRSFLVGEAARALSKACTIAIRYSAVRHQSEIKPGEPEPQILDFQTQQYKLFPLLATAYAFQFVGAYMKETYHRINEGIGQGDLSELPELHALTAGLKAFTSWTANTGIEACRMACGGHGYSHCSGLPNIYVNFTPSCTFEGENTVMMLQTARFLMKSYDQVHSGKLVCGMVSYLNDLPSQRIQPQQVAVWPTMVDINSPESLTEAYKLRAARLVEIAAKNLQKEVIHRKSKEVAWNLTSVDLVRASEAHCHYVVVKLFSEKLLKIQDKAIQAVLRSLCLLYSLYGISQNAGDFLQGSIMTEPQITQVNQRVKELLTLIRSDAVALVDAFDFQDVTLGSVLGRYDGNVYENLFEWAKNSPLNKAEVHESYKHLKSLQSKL
UniProt P33897: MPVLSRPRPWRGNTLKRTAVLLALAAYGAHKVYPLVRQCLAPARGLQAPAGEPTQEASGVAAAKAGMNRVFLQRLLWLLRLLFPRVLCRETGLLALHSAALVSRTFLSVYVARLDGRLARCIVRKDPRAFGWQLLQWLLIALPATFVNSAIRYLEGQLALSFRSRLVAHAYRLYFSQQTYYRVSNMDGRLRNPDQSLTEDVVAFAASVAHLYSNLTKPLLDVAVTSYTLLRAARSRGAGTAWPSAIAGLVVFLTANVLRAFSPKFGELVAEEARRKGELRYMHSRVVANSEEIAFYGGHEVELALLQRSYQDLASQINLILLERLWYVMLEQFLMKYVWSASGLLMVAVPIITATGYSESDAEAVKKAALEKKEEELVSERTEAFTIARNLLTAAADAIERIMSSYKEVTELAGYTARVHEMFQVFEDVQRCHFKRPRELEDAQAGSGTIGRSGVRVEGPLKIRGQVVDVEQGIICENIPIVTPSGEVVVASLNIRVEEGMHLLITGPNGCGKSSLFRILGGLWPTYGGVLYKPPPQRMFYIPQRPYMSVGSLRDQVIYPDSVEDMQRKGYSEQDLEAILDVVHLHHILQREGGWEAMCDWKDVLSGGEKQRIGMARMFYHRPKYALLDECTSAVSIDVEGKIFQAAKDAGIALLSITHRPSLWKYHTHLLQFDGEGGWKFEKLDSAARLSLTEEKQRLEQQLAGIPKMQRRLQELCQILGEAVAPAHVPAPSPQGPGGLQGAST

Some of the results follow.

Compound in one experiment: CC1=C(C=C(C=C1)NC(=O)C2=CC(=CC=C2)N(C)C)NC(=O)C3=CC=C(C=C3)O
The experiment is described as follows: log2 fold change, soluble protein after heating vs DMSO (PISA); higher = thermal stabilisation; K562 cells, 10 uM, 30 min; active = over 0.2 and 3.5 SD of the protein, either way, in both replicates (recomputed). In short, it runs like this:
(§1)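 Soluble protein was defined as the supernatant after 21,000xg for 90 min. It came from K562 cells at 2×10^6 cells/mL given 10 μM compound for 30 min, heated in aliquots for 3 min across 48°C-58°C, pooled, and extracted in PBS with 0.5% NP-40 at 4°C, and was quantified by TMTpro 16plex LC-MS/MS with equalised channel sums. Thermal stability against control samples, from duplicates, is reported as log2 fold change.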
As to ACSF2 isoform 2 (UniProt Q96CM8), the log2 fold change is inactive: -0.043.

As to ACTG1 (UniProt I3L4N8), the log2 fold change is inactive: 0.03.

Turning to ACTR3B (UniProt Q9P1U1), the log2 fold change was inactive: -0.046.

Consider ACCS (UniProt Q96QU6), for which the log2 fold change is inactive: 0.156.

ABHD17B (UniProt Q5VST6): the log2 fold change is inactive: 0.055.

Regarding ADAD1 (UniProt Q96M93), the log2 fold change is inactive: -0.074.

ACTB, A0A2R8YEA7: the log2 fold change is inactive: 0.091.

As for ACAD10 isoform 5 (UniProt Q6JQN1), the log2 fold change is inactive: 0.126.

Regarding ABHD11 (UniProt Q8NFV4), the log2 fold change is inactive: -0.065.

With ABCA2 isoform 3 (UniProt Q9BZC7), the log2 fold change was inactive: 0.026.

Regarding ACSL6 isoform 1 (UniProt Q9UKU0), the log2 fold change is inactive: -0.014.

On to AACS (UniProt Q86V21), for which the log2 fold change was inactive: 0.05.

In the case of ABCB4 (UniProt P21439), the log2 fold change is inactive: 0.011.

Compound in another experiment: CC1=CC=C(C=C1)SC2=C3C=C(SC3=CN=C2)C(=O)N
Described as above. In short, it runs like this:
as §1
As to ABCB1 (UniProt P08183), the log2 fold change is inactive: -0.099.

With ACYP2 (UniProt P14621), the log2 fold change is inactive: 0.038.

With ACAT1, A0A5F9ZHJ0, the log2 fold change was inactive: -0.198.

For the target ACTR3B (UniProt Q9P1U1), the log2 fold change is inactive: -0.05.

Turning to ABHD17B (UniProt Q5VST6), the log2 fold change was inactive: -0.009.

Regarding ACAA2 (UniProt K7ER88), the log2 fold change is inactive: -0.162.

Regarding ACP1 (UniProt P24666), the log2 fold change is inactive: 0.01.

As to ABCE1 (UniProt H0Y990), the log2 fold change is inactive: 0.088.

Take ACBD7 (UniProt Q8N6N7): the log2 fold change was inactive: 0.071.

With ACTN1 (UniProt H9KV75), the log2 fold change is inactive: 0.124.

On to ACTRT1 (UniProt Q8TDG2), for which the log2 fold change is inactive: -0.11.

For the target ACVR1 (UniProt Q04771), the log2 fold change was inactive: 0.011.

ABHD11 (UniProt Q8NFV4): the log2 fold change is inactive: -0.004.

Take ACOX3 (UniProt O15254): the log2 fold change is inactive: -0.192.

With ADAMTS13 (UniProt Q76LX8), the log2 fold change is inactive: 0.019.

Take ABCB4 (UniProt P21439): the log2 fold change was inactive: 0.001.

Take AARSD1 (UniProt Q9BTE6): the log2 fold change is inactive: 0.044.

Compound in another experiment: CC1=NC(=CC=C1)C2=C(N=C(N2)C(C)(C)C)C3=CC4=NC=CN=C4C=C3
The experiment is described as above. An outline of the steps: as §1
For the target ABCB1 (UniProt P08183), the log2 fold change was inactive: -0.028.

Consider ACYP2 (UniProt P14621), for which the log2 fold change is inactive: 0.059.

Turning to ACAT1, A0A5F9ZHJ0, the log2 fold change is inactive: -0.016.

With ACTR3B (UniProt Q9P1U1), the log2 fold change is inactive: 0.198.

As to ACOX1 isoform 3 (UniProt Q15067), the log2 fold change was inactive: 0.035.

With ABHD17B (UniProt Q5VST6), the log2 fold change is inactive: -0.041.

As to ADAD1 (UniProt Q96M93), the log2 fold change is inactive: -0.035.

Consider ABCD1 (UniProt P33897), for which the log2 fold change was inactive: -0.068.

Turning to ACP1 (UniProt P24666), the log2 fold change is inactive: -0.123.

For ABHD11 (UniProt Q8NFV4), the log2 fold change is inactive: 0.003.

Regarding ACOX3 (UniProt O15254), the log2 fold change is inactive: -0.011.

Consider ADAM8 (UniProt P78325), for which the log2 fold change was inactive: -0.15.

For ABCA2 isoform 3 (UniProt Q9BZC7), the log2 fold change was inactive: -0.133.

With AARSD1 (UniProt Q9BTE6), the log2 fold change is inactive: 0.278.
